PubChem BioAssay AID504764 – Drosophila RNAi Screening Center – 2011

Purpose: 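Genes whose knock-down alters Notch-dependent transcription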 (primary screen)
Cells: Drosophila Kc167 cells
Reagents: long dsRNA against Drosophila genes
Timing: about 5 days (4 days dsRNA, then 24 h after transfection)
Treatment: transfection of constitutively active membrane-tethered Notch lacking the extracellular domain, read 24 h later
Detection: 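Firefly luciferase from an E(spl)m3 reporter with active Notch, plus control-promoter and uninduced reporter wells for normalisation; unnormalised counts, duplicate wells a and b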
Scale: induced reporter light, run 1, well a and induced reporter light, run 1, well b: higher = more light from the Notch target reporter with active Notch; control promoter light, run 1, well a and control promoter light, run 1, well b: higher = more light from the viral control promoter (cell number, transfection, viability); uninduced reporter light, run 1, well a: higher = more light from the Notch target reporter without active Notch
Hit rule: 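Wells with low control signal or poorly matching duplicates excluded; duplicates averaged; per source plate, z beyond ±2 for induced/control log2 ratio or beyond ±1.8 for induced/uninduced marks a hit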
Meaning of the calls: active = modifier hit (raised or lowered Notch signal); inactive = not a hit
The deposit covers about 22,000 reagents; this is a random part of those that have a named target and a result. Over the whole deposit, 403 (1.9%) are marked active. 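Unnormalised raw counts per well; ratio z-scores behind the hit calls and whether each hit raises or lowers signal are not deposited.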 Reagent sequences are not shown. Not stated in the record: the amount of reagent.

{"Target gene":"Mo25","amplicon":"DRSC11224","induced reporter light, run 1, well a":1.37e5,"induced reporter light, run 1, well b":1.51e5,"control promoter light, run 1, well a":92680,"control promoter light, run 1, well b":1.03e5,"uninduced reporter light, run 1, well a":10120,"Call":"inactive"}
{"Target gene":"SmydA-6","amplicon":"DRSC07341","induced reporter light, run 1, well a":82205,"induced reporter light, run 1, well b":69645,"control promoter light, run 1, well a":78775,"control promoter light, run 1, well b":99455,"uninduced reporter light, run 1, well a":6825,"Call":"inactive"}
{"Target gene":"Vago","amplicon":"DRSC19833","induced reporter light, run 1, well a":1.25e5,"induced reporter light, run 1, well b":1.12e5,"control promoter light, run 1, well a":2.65e5,"control promoter light, run 1, well b":2.11e5,"uninduced reporter light, run 1, well a":9740,"Call":"inactive"}
{"Target gene":"CG15025","amplicon":"DRSC15031","induced reporter light, run 1, well a":1.87e5,"induced reporter light, run 1, well b":1.56e5,"control promoter light, run 1, well a":1.94e5,"control promoter light, run 1, well b":1.91e5,"uninduced reporter light, run 1, well a":12192,"Call":"inactive"}
{"Target gene":"CG32579","amplicon":"DRSC19872","induced reporter light, run 1, well a":93895,"induced reporter light, run 1, well b":87795,"control promoter light, run 1, well a":1.09e5,"control promoter light, run 1, well b":92475,"uninduced reporter light, run 1, well a":12715,"Call":"inactive"}
{"Target gene":"Scp1","amplicon":"DRSC20799","induced reporter light, run 1, well a":1.90e5,"induced reporter light, run 1, well b":2.11e5,"control promoter light, run 1, well a":3.39e5,"control promoter light, run 1, well b":2.89e5,"uninduced reporter light, run 1, well a":17280,"Call":"inactive"}
{"Target gene":"Scp1","amplicon":"DRSC20803","induced reporter light, run 1, well a":2.92e5,"induced reporter light, run 1, well b":2.57e5,"control promoter light, run 1, well a":3.31e5,"control promoter light, run 1, well b":3.99e5,"uninduced reporter light, run 1, well a":16955,"Call":"inactive"}
{"Target gene":"Scp1","amplicon":"DRSC20806","induced reporter light, run 1, well a":99810,"induced reporter light, run 1, well b":90885,"control promoter light, run 1, well a":90605,"control promoter light, run 1, well b":1.25e5,"uninduced reporter light, run 1, well a":12565,"Call":"inactive"}

Look-ups from above:
SmydA-6 [DRSC07341], induced reporter light, run 1, well b → 69645
Under “induced reporter light, run 1, well a”, Mo25 [DRSC11224] is entered as 1.37e5

The listing continues.
{"Target gene":"Wsck","amplicon":"DRSC13682","induced reporter light, run 1, well a":1.85e5,"induced reporter light, run 1, well b":1.63e5,"control promoter light, run 1, well a":1.54e5,"control promoter light, run 1, well b":1.50e5,"uninduced reporter light, run 1, well a":15295,"Call":"inactive"}
{"Target gene":"Pgant9","amplicon":"DRSC05621","induced reporter light, run 1, well a":78735,"induced reporter light, run 1, well b":84130,"control promoter light, run 1, well a":1.56e5,"control promoter light, run 1, well b":1.01e5,"uninduced reporter light, run 1, well a":9070,"Call":"inactive"}
{"Target gene":"Pgant9","amplicon":"DRSC06584","induced reporter light, run 1, well a":49265,"induced reporter light, run 1, well b":31550,"control promoter light, run 1, well a":48460,"control promoter light, run 1, well b":44435,"uninduced reporter light, run 1, well a":3605,"Call":"inactive"}
{"Target gene":"Pgant9","amplicon":"DRSC07185","induced reporter light, run 1, well a":1.28e5,"induced reporter light, run 1, well b":98525,"control promoter light, run 1, well a":1.11e5,"control promoter light, run 1, well b":88575,"uninduced reporter light, run 1, well a":6180,"Call":"inactive"}
{"Target gene":"Pgant9","amplicon":"DRSC07186","induced reporter light, run 1, well a":56650,"induced reporter light, run 1, well b":56395,"control promoter light, run 1, well a":87510,"control promoter light, run 1, well b":76945,"uninduced reporter light, run 1, well a":6305,"Call":"inactive"}
{"Target gene":"Pgant9","amplicon":"DRSC07187","induced reporter light, run 1, well a":1.22e5,"induced reporter light, run 1, well b":1.03e5,"control promoter light, run 1, well a":1.96e5,"control promoter light, run 1, well b":1.91e5,"uninduced reporter light, run 1, well a":10445,"Call":"inactive"}
{"Target gene":"Pgant9","amplicon":"DRSC07189","induced reporter light, run 1, well a":48870,"induced reporter light, run 1, well b":27450,"control promoter light, run 1, well a":47460,"control promoter light, run 1, well b":56330,"uninduced reporter light, run 1, well a":3850,"Call":"inactive"}
{"Target gene":"stl","amplicon":"DRSC04396","induced reporter light, run 1, well a":2.01e5,"induced reporter light, run 1, well b":1.67e5,"control promoter light, run 1, well a":1.49e5,"control promoter light, run 1, well b":1.44e5,"uninduced reporter light, run 1, well a":11755,"Call":"inactive"}
{"Target gene":"Cpr49Ag","amplicon":"DRSC07203","induced reporter light, run 1, well a":1.09e5,"induced reporter light, run 1, well b":1.14e5,"control promoter light, run 1, well a":1.58e5,"control promoter light, run 1, well b":1.09e5,"uninduced reporter light, run 1, well a":9550,"Call":"inactive"}
{"Target gene":"CG5880","amplicon":"DRSC15906","induced reporter light, run 1, well a":1.83e5,"induced reporter light, run 1, well b":2.07e5,"control promoter light, run 1, well a":2.79e5,"control promoter light, run 1, well b":2.82e5,"uninduced reporter light, run 1, well a":13220,"Call":"inactive"}
